# Data published in publication PMC7884776.
# The chains behind the UniProt entries cited, without tags or fusion partners. Where a name states a change or a piece, a line headed by the entry shows the natural chain unless it says otherwise.
# UniProt Q7KQL3: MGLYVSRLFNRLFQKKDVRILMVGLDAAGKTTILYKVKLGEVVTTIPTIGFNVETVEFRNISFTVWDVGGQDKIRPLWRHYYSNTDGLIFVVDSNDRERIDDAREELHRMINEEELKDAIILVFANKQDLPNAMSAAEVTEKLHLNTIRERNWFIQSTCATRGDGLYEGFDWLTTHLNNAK
# UniProt Q9BHN1: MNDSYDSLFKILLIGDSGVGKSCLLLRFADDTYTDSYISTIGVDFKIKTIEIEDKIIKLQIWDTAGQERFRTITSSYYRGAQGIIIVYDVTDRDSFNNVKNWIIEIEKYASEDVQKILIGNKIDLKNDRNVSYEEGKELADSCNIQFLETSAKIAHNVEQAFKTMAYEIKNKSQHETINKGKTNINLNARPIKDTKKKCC
# UniProt Q8IHZ9: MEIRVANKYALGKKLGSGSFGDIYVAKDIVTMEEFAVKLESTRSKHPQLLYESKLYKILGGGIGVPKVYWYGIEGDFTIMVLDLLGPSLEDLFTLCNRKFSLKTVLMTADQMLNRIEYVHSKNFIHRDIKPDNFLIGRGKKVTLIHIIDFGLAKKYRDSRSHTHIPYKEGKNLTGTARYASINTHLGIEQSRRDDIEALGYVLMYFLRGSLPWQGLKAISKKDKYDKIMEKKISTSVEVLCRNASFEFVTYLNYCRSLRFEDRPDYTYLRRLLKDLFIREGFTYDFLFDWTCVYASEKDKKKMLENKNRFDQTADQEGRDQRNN
# UniProt Q8I2B4: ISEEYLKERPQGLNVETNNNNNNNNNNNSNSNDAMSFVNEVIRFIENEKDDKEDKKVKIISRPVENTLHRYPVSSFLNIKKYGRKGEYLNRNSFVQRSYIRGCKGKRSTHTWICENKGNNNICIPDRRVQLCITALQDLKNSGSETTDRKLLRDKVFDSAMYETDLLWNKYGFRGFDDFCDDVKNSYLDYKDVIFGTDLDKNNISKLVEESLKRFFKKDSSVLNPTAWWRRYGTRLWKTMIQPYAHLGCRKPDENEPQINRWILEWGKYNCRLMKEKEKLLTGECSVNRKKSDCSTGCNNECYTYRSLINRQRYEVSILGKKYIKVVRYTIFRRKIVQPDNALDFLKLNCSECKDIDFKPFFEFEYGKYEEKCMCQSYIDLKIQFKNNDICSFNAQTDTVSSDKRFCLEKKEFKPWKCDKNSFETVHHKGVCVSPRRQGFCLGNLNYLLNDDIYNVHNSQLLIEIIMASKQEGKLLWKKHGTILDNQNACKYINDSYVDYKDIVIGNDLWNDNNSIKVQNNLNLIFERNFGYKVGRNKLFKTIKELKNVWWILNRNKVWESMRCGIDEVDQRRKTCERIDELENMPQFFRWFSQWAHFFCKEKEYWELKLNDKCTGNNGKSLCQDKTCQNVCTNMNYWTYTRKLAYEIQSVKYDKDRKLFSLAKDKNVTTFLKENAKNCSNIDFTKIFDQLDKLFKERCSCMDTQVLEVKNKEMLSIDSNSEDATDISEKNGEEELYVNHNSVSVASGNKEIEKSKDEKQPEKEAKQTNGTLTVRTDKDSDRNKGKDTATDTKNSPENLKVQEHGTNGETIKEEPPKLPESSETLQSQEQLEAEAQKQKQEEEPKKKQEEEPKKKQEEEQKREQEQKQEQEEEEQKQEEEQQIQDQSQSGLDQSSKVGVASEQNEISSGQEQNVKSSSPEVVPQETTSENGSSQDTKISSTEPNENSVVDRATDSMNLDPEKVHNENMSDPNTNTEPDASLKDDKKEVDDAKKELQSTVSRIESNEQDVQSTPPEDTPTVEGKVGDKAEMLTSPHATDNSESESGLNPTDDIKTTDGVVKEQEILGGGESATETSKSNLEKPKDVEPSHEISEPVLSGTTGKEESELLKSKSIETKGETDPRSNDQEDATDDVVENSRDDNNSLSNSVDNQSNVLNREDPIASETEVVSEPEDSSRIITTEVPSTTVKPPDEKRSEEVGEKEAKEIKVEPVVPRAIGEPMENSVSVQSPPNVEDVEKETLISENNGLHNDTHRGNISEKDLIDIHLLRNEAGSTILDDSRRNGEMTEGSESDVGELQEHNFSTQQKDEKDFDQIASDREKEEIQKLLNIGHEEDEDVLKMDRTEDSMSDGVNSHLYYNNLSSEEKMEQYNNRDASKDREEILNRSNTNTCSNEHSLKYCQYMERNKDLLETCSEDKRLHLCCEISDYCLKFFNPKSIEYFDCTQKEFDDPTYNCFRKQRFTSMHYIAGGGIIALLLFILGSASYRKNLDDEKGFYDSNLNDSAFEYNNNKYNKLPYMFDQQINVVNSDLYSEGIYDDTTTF
# UniProt Q8IL42: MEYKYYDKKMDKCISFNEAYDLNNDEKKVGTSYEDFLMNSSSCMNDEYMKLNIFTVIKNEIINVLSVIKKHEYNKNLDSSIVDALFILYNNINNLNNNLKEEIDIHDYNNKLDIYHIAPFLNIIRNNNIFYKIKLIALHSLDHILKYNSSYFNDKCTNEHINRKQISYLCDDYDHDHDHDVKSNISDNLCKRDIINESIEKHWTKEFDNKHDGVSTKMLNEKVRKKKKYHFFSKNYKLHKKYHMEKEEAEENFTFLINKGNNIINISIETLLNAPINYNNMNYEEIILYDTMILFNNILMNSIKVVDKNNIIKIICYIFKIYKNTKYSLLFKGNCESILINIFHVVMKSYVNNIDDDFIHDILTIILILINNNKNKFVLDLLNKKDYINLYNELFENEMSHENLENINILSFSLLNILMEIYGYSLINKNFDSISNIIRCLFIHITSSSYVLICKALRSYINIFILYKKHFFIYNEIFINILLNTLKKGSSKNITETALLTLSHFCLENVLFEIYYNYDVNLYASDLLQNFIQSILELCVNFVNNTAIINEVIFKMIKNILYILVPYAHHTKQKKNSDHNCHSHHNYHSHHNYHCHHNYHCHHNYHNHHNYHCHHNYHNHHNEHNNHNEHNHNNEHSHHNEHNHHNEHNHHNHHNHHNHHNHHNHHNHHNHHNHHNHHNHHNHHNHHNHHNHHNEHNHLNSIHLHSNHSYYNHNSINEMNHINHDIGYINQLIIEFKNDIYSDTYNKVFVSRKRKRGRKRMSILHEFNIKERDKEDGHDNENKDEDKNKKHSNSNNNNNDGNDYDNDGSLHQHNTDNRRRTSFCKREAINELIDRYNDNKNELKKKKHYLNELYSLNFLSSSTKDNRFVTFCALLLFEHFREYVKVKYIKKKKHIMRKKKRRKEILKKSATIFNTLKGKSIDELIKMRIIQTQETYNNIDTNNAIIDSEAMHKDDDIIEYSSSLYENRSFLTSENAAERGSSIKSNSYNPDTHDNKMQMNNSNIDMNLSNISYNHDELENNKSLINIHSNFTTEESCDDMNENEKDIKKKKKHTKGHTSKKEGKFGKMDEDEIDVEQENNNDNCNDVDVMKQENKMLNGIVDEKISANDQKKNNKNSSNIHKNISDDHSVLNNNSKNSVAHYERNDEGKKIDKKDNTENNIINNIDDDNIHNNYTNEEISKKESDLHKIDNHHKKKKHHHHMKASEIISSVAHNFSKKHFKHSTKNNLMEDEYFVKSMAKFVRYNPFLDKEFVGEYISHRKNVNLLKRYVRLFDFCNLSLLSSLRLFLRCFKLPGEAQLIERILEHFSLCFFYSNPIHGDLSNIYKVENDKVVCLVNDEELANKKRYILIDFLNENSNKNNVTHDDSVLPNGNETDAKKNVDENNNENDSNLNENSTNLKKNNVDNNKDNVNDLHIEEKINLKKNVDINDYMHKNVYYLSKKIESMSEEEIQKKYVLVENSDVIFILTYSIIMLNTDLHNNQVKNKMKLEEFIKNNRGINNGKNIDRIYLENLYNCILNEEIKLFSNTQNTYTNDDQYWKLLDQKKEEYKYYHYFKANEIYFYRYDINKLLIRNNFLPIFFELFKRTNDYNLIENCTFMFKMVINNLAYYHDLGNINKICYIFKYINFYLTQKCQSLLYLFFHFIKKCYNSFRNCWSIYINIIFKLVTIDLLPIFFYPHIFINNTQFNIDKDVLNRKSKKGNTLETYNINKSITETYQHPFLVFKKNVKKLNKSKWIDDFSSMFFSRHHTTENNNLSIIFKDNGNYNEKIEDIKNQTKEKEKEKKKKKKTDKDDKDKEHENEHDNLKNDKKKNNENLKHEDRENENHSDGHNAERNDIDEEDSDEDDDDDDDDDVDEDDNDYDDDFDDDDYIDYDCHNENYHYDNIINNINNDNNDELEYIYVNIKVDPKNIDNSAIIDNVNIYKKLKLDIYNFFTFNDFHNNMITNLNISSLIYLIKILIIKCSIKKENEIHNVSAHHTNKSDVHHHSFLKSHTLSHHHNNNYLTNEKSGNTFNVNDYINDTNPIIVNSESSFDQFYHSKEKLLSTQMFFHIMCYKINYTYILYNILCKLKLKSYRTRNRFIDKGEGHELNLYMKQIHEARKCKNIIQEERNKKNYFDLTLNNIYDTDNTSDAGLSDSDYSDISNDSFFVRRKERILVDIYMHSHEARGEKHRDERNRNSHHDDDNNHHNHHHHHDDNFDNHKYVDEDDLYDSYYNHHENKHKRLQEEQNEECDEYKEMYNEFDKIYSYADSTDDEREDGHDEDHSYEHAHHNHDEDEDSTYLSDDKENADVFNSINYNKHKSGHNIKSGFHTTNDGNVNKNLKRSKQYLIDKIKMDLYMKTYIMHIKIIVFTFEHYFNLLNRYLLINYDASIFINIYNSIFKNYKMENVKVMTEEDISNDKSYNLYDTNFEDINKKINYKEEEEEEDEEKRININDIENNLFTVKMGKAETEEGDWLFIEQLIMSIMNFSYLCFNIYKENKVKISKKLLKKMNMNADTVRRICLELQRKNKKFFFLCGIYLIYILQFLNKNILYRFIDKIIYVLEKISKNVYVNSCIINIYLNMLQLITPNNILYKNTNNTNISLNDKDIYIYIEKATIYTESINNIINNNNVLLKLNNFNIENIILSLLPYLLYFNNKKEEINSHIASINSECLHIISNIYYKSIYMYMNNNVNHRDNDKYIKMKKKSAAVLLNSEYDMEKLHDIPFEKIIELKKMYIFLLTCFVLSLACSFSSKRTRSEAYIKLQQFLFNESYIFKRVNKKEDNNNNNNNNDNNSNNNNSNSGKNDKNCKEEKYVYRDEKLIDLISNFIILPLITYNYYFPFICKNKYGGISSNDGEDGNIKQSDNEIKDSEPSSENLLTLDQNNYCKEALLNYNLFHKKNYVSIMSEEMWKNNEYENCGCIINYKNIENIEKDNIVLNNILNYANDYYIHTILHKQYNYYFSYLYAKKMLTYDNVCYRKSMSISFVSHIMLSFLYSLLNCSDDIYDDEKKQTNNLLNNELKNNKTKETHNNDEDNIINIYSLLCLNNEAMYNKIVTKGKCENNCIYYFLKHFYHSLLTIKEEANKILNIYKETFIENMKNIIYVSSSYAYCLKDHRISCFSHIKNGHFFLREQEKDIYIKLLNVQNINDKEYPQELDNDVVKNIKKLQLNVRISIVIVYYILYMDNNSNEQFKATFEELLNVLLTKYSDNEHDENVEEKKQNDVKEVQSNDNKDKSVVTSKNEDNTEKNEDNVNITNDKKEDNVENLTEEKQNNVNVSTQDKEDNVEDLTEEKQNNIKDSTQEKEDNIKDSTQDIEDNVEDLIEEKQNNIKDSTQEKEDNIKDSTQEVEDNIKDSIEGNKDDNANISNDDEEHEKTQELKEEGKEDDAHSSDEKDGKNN
# No constants are given. Whether binding was seen depends on the method and setting. In cells and extracts the contact can be indirect. Here binding means that the protein was enriched with, or labelled near, the bait; the list need not be complete. No binding means not detected with the bait. Tags and fused reporters may be left off the sequences shown.
# B1: PVM protein S16 (Pfs16) (protein, UniProt Q6ZMA7 26-157)
# chain: DANDKAKKPAGKGSPSTLQTPGSSSGASLHAVGPNQGGLSQGLSGKDSADKMPLETQLAIEEIKSLSNMLDKKTTVNRNLIISTAVTNMIMLIILSGIVGFKVKKTKNADDDKGDKDKDKDNTDEGDEGDDS
# Target: T1, PfRab5b-YFP-FLAG (Plasmodium falciparum) (UniProt Q76NM7)
# T1 sequence: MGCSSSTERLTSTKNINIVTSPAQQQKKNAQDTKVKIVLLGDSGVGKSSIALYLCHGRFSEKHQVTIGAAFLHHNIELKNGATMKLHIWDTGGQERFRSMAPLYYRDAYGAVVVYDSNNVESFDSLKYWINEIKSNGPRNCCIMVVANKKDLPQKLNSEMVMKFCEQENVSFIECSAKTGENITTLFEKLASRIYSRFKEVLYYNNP
# Assay: affinity purification with mass spectrometry; saponin-permeabilised infected RBCs crosslinked with 0.5 mM DSP, solubilised in 1.0% Triton X-100 in PBS; anti-FLAG M2 agarose at 4°C for 3.5 h, eluted with FLAG peptide; SDS-PAGE, LC-ToF MS/MS; PfRab5b-YFP as control, >3.5 fold enrichment
row,Molecule,binding
1,"ADP-ribosylation factor (PfArf GTPase), PfArf1 (from UniProt Q7KQL3 1-181)",binds
2,PfRab1b GTPase (from UniProt Q9BHN1 1-200),binds
3,casein kinase CK1 (from UniProt Q8IHZ9 1-324),no binding
4,early transcribed membrane protein 10.2 (ETRAMP10.2) (from UniProt Q8IJ76),binds
5,erythrocyte binding antigen-181 (EBA181) (from UniProt Q8I2B4),binds
6,protein transport protein SEC7 (PfSec7) (from UniProt Q8IL42),binds
7,B1,binds
